Earlier results as cited in patent US7217802B2, “Method and kit for detecting, or determining, 3,4-methylenedioxymethamphetamine” (Randox Laboratories Limited, priority 2001, dated 2007).
Some entries share one result that the patent states for a list of compounds.

Test system: reagents of EP 0 399 184 A2 (antibodies from amphetamine haptens)
Settings: calculated as concentration found over concentration added; Example 20 of EP 0 399 184 A2; cited from earlier work

| SMILES | cross-reactivity |
| --- | --- |
| CC(N)Cc1ccc2c(c1)OCO2 (stereo not drawn) [MDA, 3,4-methylenedioxyamphetamine] | less than 30% |
| CCNC(C)Cc1ccc2c(c1)OCO2 (stereo not drawn) [MDEA, 3,4-methylenedioxyethylamphetamine] | less than 30% |
| CNC(C)Cc1ccc2c(c1)OCO2 (stereo not drawn) [MDMA, 3,4-methylenedioxymethamphetamine] | less than 30% |
